PMC4669748

Experiments:
[1] = target: GST fused with truncated AKT: core domain (central region, hosts the kinase domain); experiment: pull-down; GST pull-down with purified recombinant His-BTG3 and GST or GST fused with full-length or truncated AKT; both purified
[2] = target: GST fused with truncated AKT: N-terminal domain (hosts the PH domain); experiment: as above

binding [1]: binds
binding [2]: binds
B1: His-tagged, full-length BTG3 protein (protein, UniProt Q14201 1-252)
chain: MKNEIAAVVFFFTRLVRKHDKLKKEAVERFAEKLTLILQEKYKNHWYPEKPSKGQAYRCIRVNKFQRVDPDVLKACENSCILYSDLGLPKELTLWVDPCEVCCRYGEKNNAFIVASFENKDENKDEISRKVTRALDKVTSDYHSGSSSSDEETSKEMEVKPSSVTAAASPVYQISELIFPPLPMWHPLPRKKPGMYRGNGHQNHYPPPVPFGYPNQGRKNKPYRPIPVTWVPPPGMHCDRNHWINPHMLAPH

These are yes or no findings as the source states them, for the method shown. A result given as binding can be weak or reduced; the word gives no strength. Where a sequence is shown, tags or fusion partners need not be part of it.
